Drawing on article PMC7819943, “Rice protein-binding microarrays: a tool to detect cis-acting elements near promoter regions in rice”, this text covers binding signal for 42 sequences.

The chains behind the UniProt entries cited, without tags or fusion partners.
UniProt Q0JBA9, entry or part of it: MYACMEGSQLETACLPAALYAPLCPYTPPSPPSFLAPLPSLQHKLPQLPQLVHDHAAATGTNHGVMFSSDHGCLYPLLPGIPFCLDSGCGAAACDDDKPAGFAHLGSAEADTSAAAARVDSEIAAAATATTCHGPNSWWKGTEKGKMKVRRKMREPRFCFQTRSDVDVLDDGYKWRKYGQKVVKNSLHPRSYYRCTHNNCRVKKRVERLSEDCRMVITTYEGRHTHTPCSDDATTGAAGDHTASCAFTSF

The list shows a part of the results.

For the test, the target named is OsWRKY34 (Oryza sativa, UniProt Q0JBA9 1-250). Kind of test: protein-binding microarray (RPBM); PBS, 2% BSA, 51.3 ng/ul salmon testes DNA, 50 uM zinc acetate, 200 nM TF, 25 C, 1 h; high values mean tight binding. As to conditions: protein: recombinant; tags: N-terminal polyhistidine and DsRed monomer fusion (pET32a); label: CyDye5-dUTP incorporated in the synthesized complementary strand; 3' TTTTT single-stranded linker to array surface; dsDNA, one strand shown. Put shortly: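 Polyhistidine-tagged DsRed fusions of transcription factors, joined at the N-terminus, were expressed in E. coli BL21-CodonPlus and isolated on Ni–NTA. They were incubated at 200 nM for 1 h at 25 °C on a custom Agilent array, double-stranded and BSA-blocked, in PBS with 2% BSA, salmon testes DNA and 50 µM zinc acetate. The binding signal is per-feature fluorescence intensity (arbitrary units) read on an Axon 4000B scanner after washing.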
On to “TTGATTTTTTTAGCACATGTTTGACCGTTCGTCTTATTAACGGAGTCACCTAGTGCAG”, for which the binding signal was 13200 fluorescence intensity (a.u.). Consider “GGTTAAACGTTACATAATGAAATCCAGGGTTTTTTTTCTTCGGAGTCACCTAGTGCAG”, for which the binding signal was 8300 fluorescence intensity (a.u.). Take “TGTCTCTTATCTCTTTCTTCTCTTTCCCACGACCACACATCGGAGTCACCTAGTGCAG”: the binding signal is 8030 fluorescence intensity (a.u.). As for “CCGCCGCCTTTGACCGCCGCGCGCGCGCGCCTACTATACCCGGAGTCACCTAGTGCAG”, the binding signal was 12600 fluorescence intensity (a.u.).

On to “ATTCGGTTTTTTTCCTCTCTTTTTTCTCCACTTTTTTTTTCGGAGTCACCTAGTGCAG”, for which the binding signal was 10500 fluorescence intensity (a.u.).

Regarding “GCGTCGCCACCGCCGTGATCACCACCATCGACAGCGCCAGCGGAGTCACCTAGTGCAG”, the binding signal is 9900 fluorescence intensity (a.u.). The same measure for “CATATTTGCATGCACTCTCTGTTCTTCCCCTATTTCTTACCGGAGTCACCTAGTGCAG”: 9950 fluorescence intensity (a.u.); for “ACCACTTCCGTAGCTGTGCAGTCTCTCTGTGTTGTACACGCGGAGTCACCTAGTGCAG”: 8410 fluorescence intensity (a.u.); for “TGTTGGTGGTTGTACATTGGGTCTCAGGGTTAAAATCATACGGAGTCACCTAGTGCAG”: 14000 fluorescence intensity (a.u.). Under “GTAGCCACCCACACGACGCGCGCTGCCGCTGCTCACACCTCGGAGTCACCTAGTGCAG” stands 8720 fluorescence intensity (a.u.); under “ACTTGCGCGCGTCGTTACCCGTTTTGCCCTGACGCGTGCACGGAGTCACCTAGTGCAG”, 9140 fluorescence intensity (a.u.); under “AGGATAATGCATACACTAGTAAGGCCCATAGATACATTTGCGGAGTCACCTAGTGCAG”, 8560 fluorescence intensity (a.u.). Under “ATCCTGACTACGCCATCGATCGTGCAAGTGCTGCTTTTATCGGAGTCACCTAGTGCAG” stands 11800 fluorescence intensity (a.u.); under “CTGAACCCTACCCCTTTGACTCATCCTGTCATCCCCATGACGGAGTCACCTAGTGCAG”, 9600 fluorescence intensity (a.u.). On to “TCGCATTAGCTTTGTCTCTGTCGTTTCCACATCCTTTGTTCGGAGTCACCTAGTGCAG”, for which the binding signal was 9630 fluorescence intensity (a.u.). “CTTCACTCTTGATTCAAAAGGTTTTATTTTTTTTTCTGGTCGGAGTCACCTAGTGCAG”: the binding signal was 8530 fluorescence intensity (a.u.). Under “TATTAAACTCCATTCTCTGCAGTGCCATTGCCTCCATTTCCGGAGTCACCTAGTGCAG” stands 9630 fluorescence intensity (a.u.); under “TTTCTCATGCATCGACCACTTTCTGTTTCATCTCCTGAAACGGAGTCACCTAGTGCAG”, 9720 fluorescence intensity (a.u.); under “GATTTGATTTTTTTTTCACGGAGTGAGTATTGCTTATATACGGAGTCACCTAGTGCAG”, 8200 fluorescence intensity (a.u.). For the sequence “CATTTCCCTACAGTACATATAACTAGATAGTATCTCTTCGCGGAGTCACCTAGTGCAG”, the binding signal was 9440 fluorescence intensity (a.u.). Consider “CATCACTTTTTTGTTGTTTTTTTCGCTCACTTGCCACTTTCGGAGTCACCTAGTGCAG”, for which the binding signal is 10200 fluorescence intensity (a.u.). For the sequence “TCCTCTACCACCTCCGCCGCTGCTCGTCGTCACCGACCTCCGGAGTCACCTAGTGCAG”, the binding signal is 10900 fluorescence intensity (a.u.). In the case of “AACTCGCTCTCCGGGTAGAGTACACGTCACCACCCGACTCCGGAGTCACCTAGTGCAG”, the binding signal was 8310 fluorescence intensity (a.u.).

In the case of “CTGCTTCTTTTGTTTGGTTGGTTTCAGGGCTTCGTGGCCACGGAGTCACCTAGTGCAG”, the binding signal is 17800 fluorescence intensity (a.u.).

Take “ATCGACCATCCACACGCACGCACTTATACAATTTGGTTTCCGGAGTCACCTAGTGCAG”: the binding signal is 12200 fluorescence intensity (a.u.). “GGCACATCTCCGGCGCCCACCTCAACCCGTCGCTCACCATCGGAGTCACCTAGTGCAG”: the binding signal was 8120 fluorescence intensity (a.u.). As to “TCGAAACTTTCCTACACACGTAAACTTCCAACTTTTCCGTCGGAGTCACCTAGTGCAG”, the binding signal is 8620 fluorescence intensity (a.u.). For “GCCTGTCCCCGCGGCGTCTCCTTCTGGCCTTGCAGCTTTACGGAGTCACCTAGTGCAG”, the binding signal is 10900 fluorescence intensity (a.u.). Consider “CCAGCCGCCATCCCGGCTTTGACGACCACCATCCGGAGCACGGAGTCACCTAGTGCAG”, for which the binding signal is 8030 fluorescence intensity (a.u.). Under “GCCTCACTAGCTCACTCCCACTCCGCCATCCACTCCCACTCGGAGTCACCTAGTGCAG” stands 10100 fluorescence intensity (a.u.); under “AATATTTAGTACTCTCTTCATTAAATTTGATTTTCAAATTCGGAGTCACCTAGTGCAG”, 11300 fluorescence intensity (a.u.); under “TTTCATGGATAACACGTGCACTACATTCTTGCCTGTTCCACGGAGTCACCTAGTGCAG”, 10200 fluorescence intensity (a.u.). On to “TTTCTTTTTCAGCATTGACTTTTAAGTCACCAAGAACACACGGAGTCACCTAGTGCAG”, for which the binding signal is 8060 fluorescence intensity (a.u.). On to “TGCCACTGGAATTTTGTAAAATTGGATCAATGTCATCGCCCGGAGTCACCTAGTGCAG”, for which the binding signal was 8280 fluorescence intensity (a.u.).

With “ACGACATTAATGCTTTCCCCACATTTCTCTCTCAGACTCTCGGAGTCACCTAGTGCAG”, the binding signal was 8120 fluorescence intensity (a.u.). With “TACACGCCACAGTTTGTTCCACCGAAGCTGCACATTTCACCGGAGTCACCTAGTGCAG”, the binding signal is 9980 fluorescence intensity (a.u.). For the sequence “CTTCTTCCATCCTAATCACCGCATTCCAGTACTATCCATACGGAGTCACCTAGTGCAG”, the binding signal is 11900 fluorescence intensity (a.u.). Take “TATCCCGTTTCTCTGTCTTTTGCTCCCCGGCGCGCGCCAGCGGAGTCACCTAGTGCAG”: the binding signal is 13300 fluorescence intensity (a.u.). Under “AATATCTTGCGTGCTGGCTTTTCGTAAAGTTAAATCCTTTCGGAGTCACCTAGTGCAG” stands 8430 fluorescence intensity (a.u.).

In the case of “CGCTTTGTTAGCATTGTAGGGGAGGGATAGTTTGCATATCCGGAGTCACCTAGTGCAG”, the binding signal was 11200 fluorescence intensity (a.u.).

For the sequence “CCTTGCTAGGAGGACGAACGCCGGCGGCGGGGAGGGGATGCGGAGTCACCTAGTGCAG”, the binding signal is 10400 fluorescence intensity (a.u.). On to “ACCGCCTACCGCATCTCCTCGCGTTCACACCACGCACCCGCGGAGTCACCTAGTGCAG”, for which the binding signal is 10600 fluorescence intensity (a.u.).
